Reference: PubChem BioAssay AID1259254 (NCATS, 2017)
Here is an unselected part of about 59,000 reagents. About 1,550 of all reagents (2.6%) count as active. 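G2 share is only a proxy for re-replication; each gene was hit by three separate siRNAs, and active genes were retested.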 Raw values are not corrected between plates. Unmarked entries are inactive. The numbers tell different reagents against one gene apart. The record does not give: the amount of reagent.

Test: 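Finding genes that stop cells copying their DNA twice in one cycle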 (primary screen)
Cells: human HCT116 colorectal cancer cells
Reagent: single siRNA against human genes
Timing: 3 days
Read-out: 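Imaged Hoechst DNA stain sorts each cell into a cycle phase by DNA amount; per plate, G2 fraction set to 0% for non-targeting and 100% for GMNN siRNA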
Reading the numbers: G2 robust z-score and G2 cells, % of GMNN control: higher = more G2 cells, more excess DNA replication; raw share of cells in G2: higher = larger share of cells with G2 DNA content
Call rule: 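Active siRNAs have a G2 robust z of 5 or more median absolute deviations over the median, which in these data means about 38% or higher of GMNN control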

Gene,reagent no.,G2 robust z-score,"G2 cells, % of GMNN control",raw share of cells in G2 (%)
ACVR1C (GeneID 130399),1,-0.49,-0.48,5.44
ACVR1C (GeneID 130399),2,-1.1,-4.78,3.45
ACVR1C (GeneID 130399),3,0.0361,3.22,4.71
BET1L (GeneID 51272),1,-0.953,-3.74,3.14
BET1L (GeneID 51272),2,-0.0422,2.67,4.1
BET1L (GeneID 51272),3,-0.916,-3.48,2.53
RSPH9 (GeneID 221421),1,-0.372,0.351,3.71
RSPH9 (GeneID 221421),2,-0.392,0.211,3.2
RSPH9 (GeneID 221421),3,0.791,8.53,5.92
ZNF680P1 (GeneID 728947),1,0.542,6.78,5.5
ZNF680P1 (GeneID 728947),2,0.103,3.7,4.55
ZNF680P1 (GeneID 728947),3,0.0153,3.07,5.11
OLIG1 (GeneID 116448),1,-0.351,0.495,4.67
OLIG1 (GeneID 116448),2,-0.876,-3.2,3.6
OLIG1 (GeneID 116448),3,-0.0252,2.79,6.97
MSH3 (GeneID 4437),1,-0.212,1.48,3.68
MSH3 (GeneID 4437),2,-1.3,-6.19,2.97
MSH3 (GeneID 4437),3,-0.612,-1.34,4.94
DEFB125 (GeneID 245938),1,-0.608,-1.31,3.1
DEFB125 (GeneID 245938),2,0.758,8.3,5.97
DEFB125 (GeneID 245938),3,-0.281,0.992,3.51
GTSF1 (GeneID 121355),1,-0.842,-2.96,0.953
GTSF1 (GeneID 121355),2,-0.856,-3.06,2.87
GTSF1 (GeneID 121355),3,3.73,29.2,12
GAL3ST4 (GeneID 79690),1,0.716,8.01,7.75
GAL3ST4 (GeneID 79690),2,-0.46,-0.267,4.1
GAL3ST4 (GeneID 79690),3,1.62,14.4,11.4
SUCO (GeneID 51430),1,-0.611,-1.33,3.13
SUCO (GeneID 51430),2,0.514,6.59,7.05
SUCO (GeneID 51430),3,-0.503,-0.568,3
KCNJ2 (GeneID 3759),1,-0.43,-0.0606,5.27
KCNJ2 (GeneID 3759),2,-0.92,-3.51,3.6
KCNJ2 (GeneID 3759),3,-0.364,0.408,4.53
SEC11A (GeneID 23478),1,-1.15,-5.13,3.77
SEC11A (GeneID 23478),2,6.59 (active),49.4,22.4
SEC11A (GeneID 23478),3,0.115,3.78,5.32
CDNF (GeneID 441549),1,-0.0627,2.53,4.6
CDNF (GeneID 441549),2,-0.219,1.43,3.96
CDNF (GeneID 441549),3,-0.654,-1.63,2.56
PPIA (GeneID 5478),1,0.12,3.81,5.41
PPIA (GeneID 5478),2,-0.89,-3.29,3.42
PPIA (GeneID 5478),3,1.43,13,9.45
DHX34 (GeneID 9704),1,0.919,9.43,8.77
DHX34 (GeneID 9704),2,-0.000605,2.96,4.21
DHX34 (GeneID 9704),3,-0.698,-1.95,3.96
CCNA2 (GeneID 890),1,1.01,10.1,7.74
CCNA2 (GeneID 890),2,7.86 (active),58.3,24.6
CCNA2 (GeneID 890),3,4.96,37.9,18.6
